Laboratory results: publication PMC12044017, “CDK4/6-mediated phosphorylation of DUB3 promotes YAP1 stability and hepatocellular carcinoma progression” (Cell Death Discovery, 2025)
These are yes or no findings as the source states them, for the method shown. Binding seen in cells or lysates may run through a third protein. A yes stands for co-enrichment or nearness to the bait. Other partners may have been found.

Target: Flag-YAP1 (UniProt P46937)
Experiment: affinity purification with mass spectrometry; tandem affinity purification of YAP1 complexes from HCCLM3 cells stably expressing Flag-YAP1; mass spectrometric analysis

Q: For “EGFR (from UniProt P00533 25-1210) (receptor)”, which binding is on record?
A: Its binding is “binds”.

B1: DUB3 (endogenous) (enzyme, UniProt Q6R6M4 1-530)
chain: MEDDSLYLGGEWQFNHFSKLTSSRPDAAFAEIQRTSLPEKSPLSSEARVDLCDDLAPVARQLAPRKKLPLSSRRPAAVGAGLQNMGNTCYENASLQCLTYTPPLANYMLSREHSQTCQRPKCCMLCTMQAHITWALHSPGHVIQPSQALAAGFHRGKQEDAHEFLMFTVDAMKKACLPGHKQVDHHSKDTTLIHQIFGGCWRSQIKCLHCHGISDTFDPYLDIALDIQAAQSVKQALEQLVKPEELNGENAYHCGLCLQRAPASKTLTLHTSAKVLILVLKRFSDVTGNKLAKNVQYPECLDMQPYMSQQNTGPLVYVLYAVLVHAGWSCHDGHYFSYVKAQEGQWYKMDDAKVTACSITSVLSQQAYVLFYIQKSEWERHSESVSRGREPRALGAEDTDRRATQGELKRDHPCLQAPELDERLVERATQESTLDHWKFPQEQNKTKPEFNVRKVEGTLPPNVLVIHQSKYKCGMKNHHPEQQSSLLNLSSTTRTDQESVNTGTLASLQGRTRRSKGKNKHSKRALLVCQ
Q: Which binding does the source give for B1 here?
A: The binding was “binds”.
